Laboratory results: patent publication US20250388574A1, “HETEROCYCLIC COMPOUNDS AS TRIGGERING RECEPTOR EXPRESSED ON MYELOID CELLS 2 AGONISTS AND METHODS OF USE” (AMGEN INC., priority 2020, published 2025)
At least one compound was matched to its structure with a doubt left.

Chains of the proteins cited; added tags and fusions are not shown. Residues count along the entry.
UniProt Q9NZC2, 19-230: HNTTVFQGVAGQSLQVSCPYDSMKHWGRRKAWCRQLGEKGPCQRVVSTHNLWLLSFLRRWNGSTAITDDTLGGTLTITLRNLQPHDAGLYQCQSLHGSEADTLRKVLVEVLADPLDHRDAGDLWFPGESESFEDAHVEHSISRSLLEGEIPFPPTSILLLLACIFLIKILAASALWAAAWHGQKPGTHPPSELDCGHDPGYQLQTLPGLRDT

Molecular target: hTREM2 (Homo sapiens, UniProt Q9NZC2)
Experiment: Phospho-Syk AlphaScreen/AlphaLISA assay in TREM2 and DAP12 overexpressing HEK293 cells (Example A1)
Assay type: cell-based
Parameters: expressed in transfected cells
Experimental: Pharmacological measurements of TREM2 signaling through DAP12 were made with TREM2 and DAP12 overexpressing HEK293 cells stable cell lines that had been single-cell cloned (“TREM2/DAP12-HEK”). The readout of the TREM2 signaling utilized Perkin Elmer AlphaScreen/AlphaLISA technology monitoring the phosphorylation levels of the Syk kinase. TREM2/DAP12-HEK cell lines were cultured in DMEM-F12 (Corning 10-092-CM) supplemented with 1× Penicillin/Streptomycin (Corning 30-002-CI), 1× GlutaMAX (Gibco 35050-061), and 10% Fetal Bovine Serum (Life Technologies 10099) referred to as “HEK Culture Medium”. […] Once the final incubation was completed, acquired AlphaScreen signal from the donor and acceptor beads using an Envision high throughput multi-modal microplate reader (Perkin Elmer) calibrated to the plate type with the AlphaScreen mirror and filter-set in 384-well mode, 680 nanometer excitation wavelength. […] After reading the AlphaScreen signal for each well of the microplates, on a plate-by-plate basis, each raw test article well value (x) was normalized to a Percent of Control (“POC”) value using the following formula: […] […]

Compound: Cc1nc2cc(N3CCO[C@@H](c4cnn(C(F)CF)c4)C3)nc(-c3ccc(Cl)cc3F)c2c(=O)n1C (stereo partly drawn) [Example 135, 5-(4-chloro-2-fluorophenyl)-7-((2S)-2-(1-(1,2-difluoroethyl)-1H-pyrazol-4-yl)-4-morpholinyl)-2,3-dimethylpyrido[4,3-d]pyrimidin-4(3H)-one]
- Emax: ++++ (Emax>300)
